No constants are given. Whether binding was seen depends on the method and setting. Binding seen in cells or lysates may run through a third protein. These calls come from enrichment with a bait or labelling near it, and not all partners need be listed. No binding means not detected with the bait.
Molecular target: PhastID-tagged Rheb (UniProt Q15382)
Assay: proximity labelling; PhastID-Rheb stably expressed in HeLa 229 cells; serum starved 16 h, then 0.9 uM insulin plus 50 uM biotin for 15 min or 1 h; RIPA whole cell lysate, streptavidin magnetic bead pull-down, LC-MS/MS, triplicates; PhastID alone and biotin alone as controls

binding: no binding
B1: TCTP (protein, UniProt P13693 1-172)
chain: MIIYRDLISHDEMFSDIYKIREIADGLCLEVEGKMVSRTEGNIDDSLIGGNASAEGPEGEGTESTVITGVDIVMNHHLQETSFTKEAYKKYIKDYMKSIKGKLEEQRPERVKPFMTGAAEQIKHILANFKNYQFFIGENMNPDGMVALLDYREDGVTPYMIFFKDGLEMEKC

Source: paper PMC11061317
